Results of single-concentration screens

From ChEMBL document CHEMBL3988442, “University of Dundee, Small-Polar-MMV Screening Library” (2021).

Mtb cholesterol medium: 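Growth of Mycobacterium tuberculosis over 4 days (cholesterol / DPPC medium with tyloxapol); the read-out is not stated. Concentration: 50 µM. The record gives no direction; compounds that gave an IC50 in retests scored well above the rest, so higher reads as more growth inhibition. Of about 69,000 compounds tested this way, about 370 (0.54%) reached 50% or more in at least one test.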
Mtb glucose medium: 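Phenotypic screen: M. tuberculosis growth, glucose 7H9 medium, 3 days; the read-out is not stated. Tested at 50 µM. Direction is inferred from retests: higher values go with more growth inhibition. About 69,000 compounds were tested under these conditions; 1.1% (about 760) showed 50% or more at least once.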

Results are given as percent effect. The controls that fix the scale are not given in the record; negative values are as filed. The compounds are a random part of those screened. Two or more numbers in one place are separate tests of the same structure; such repeats can differ widely.

| structure | Mtb cholesterol medium | Mtb glucose medium |
|---|---|---|
| `CNC(=O)C1CCC2(CCN(c3ncc(C)cn3)CC2)CO1` (centres undefined) | -2.395 | -5.349 & -5.612 |
| `CCC1CN(CC(=O)NCCN2CCCCC2)c2ccccc2S1` (centres undefined) | 18.84 | 36.18 |
| `Cc1cnn(CC2CCCN2C(=O)Cc2c(C)nc(C)[nH]c2=O)c1` (centres undefined) | -19.63 | -11.6 |
| `Cc1ncsc1CNC(=O)CCN1CCN(c2ccccn2)CC1` | 7.359 | 3.23 & 26.38 |
| `CC(C)(C)c1ccn(C2(C(=O)O)CCN(c3ccnc(N)n3)CC2)n1` | -11.83 | -36.3 |
| `Cc1cc(CSCc2ccccn2)on1` | 1.312 | -10.89 |
| `COc1ccc(CN2C[C@H](O)C[C@H]2c2nc(-c3ccccc3)no2)cc1` | -23.41 | -19.84 & 0.153 |
| `O=C(c1c[nH]nn1)N1CCCC1C1CCCCC1` (centres undefined) | -12.61 | 9.483 |
| `Cc1nn(C)c2ncc(CN3CCCCCC3)cc12` | -4.048 | 1.634 |
| `CC(=O)c1ccc(S(=O)(=O)N2CCC(c3n[nH]c(C)n3)CC2)cc1` | -13.41 | -5.197 |
| `CN(C)c1cccc(C2CCN(c3ncccn3)CC2)n1` | 10.8 | 22.97 |
| `O=C(O)C(F)(F)F.[H][C@@]12CCN(C3CCOC3)[C@]1([H])CCC(=O)N2Cc1csc(C)n1` (some centres undefined) | 11.6 | 17.24 |
| `CCCC(=O)NCCc1nc2cc(-c3ccc(OC)cc3)ncn2n1` | -0.3474 & 1.333 | 5.622 |
| `COc1ccccc1C1SCC(=O)Nc2c1c(=O)[nH]n2C1CCCCC1` (centres undefined) | -9.542 | 3.938 & 1.855 |
| `Cn1ncc2c(=O)[nH]c(CN3CCCc4cc(F)ccc43)nc21` | -6.849 | -1.987 |
| `O=C(CCOc1ccccc1F)N1CCCC1Cn1cccn1` (centres undefined) | -10.67 | 13.44 |
| `CC1(c2ccc(Br)cc2)CC(=O)N(CCC#N)C1=O` (centres undefined) | -22.07 | -45.08 |
| `CCOc1ncc(NC(=O)c2ccccn2)c(OCC)n1` | 14.37 | -2.299 & 8.469 |
| `CC(C)c1cc(NCC(O)CO)n2nccc2n1` (centres undefined) | 17.14 | 7.558 |
| `O=C(NCC1CCN(Cc2ccsc2)CC1)NC1CC1` | -4.841 | -6.657 |
| `CC(=O)N1CCC2(CCCN2Cc2cnn(C)c2)CC1.O=C(O)C(F)(F)F` | -11.92 | -10.98 |
| `CS(=O)(=O)c1cc(Cl)cnc1C1CCN(C(=O)C2CCOCC2)CC1` | 3.553 & -10.06 | 23.87 |
| `NCC1Cc2cc(-c3cncc(C(=O)N4CCCCC4)n3)cc(F)c2O1` (centres undefined) | -14.74 | -15.09 |
| `CCS(=O)(=O)N1CCC(c2nnc(C3CC3)o2)CC1` | 10.59 | 0.4441 |
| `CS(=O)(=O)Cc1noc(CN2CCc3c(Cl)cccc3C2)n1` | -13.58 | -19.25 |
| `COc1c(CNC2CCOc3c(Cl)cccc32)c(C)nn1C.Cl` (centres undefined) | -6.766 | -33.01 |
| `Cc1oc(-c2ccccc2)nc1CN1CCC(c2ccnn2C)CC1` | -8.464 | 1.066 |
| `CCNC(=O)N(C)C1CCCc2nc(C)sc21` (centres undefined) | 10.27 | 20.63 |
| `NC(=O)C1CCN(C(=O)NC2CCc3cc(F)ccc32)CC1` (centres undefined) | -23 | -17.57 |
| `CN(C)C(=O)N1CCN(C)c2ncccc2C1` | -10.73 | -2.311 & 8.649 |
| `O=C(O)C(F)(F)F.[H][C@@]12COC[C@]1([H])[C@@H](OCC(=O)N(C)C)CN2Cc1nccs1` | -4.511 | 23.92 |
| `COc1ccc2c(C)c(C(=O)NC3CCCOC3)oc2c1` (centres undefined) | -6.061 & -5.196 | -3.95 |
| `Cc1nc(C(=O)N(C)C2CC(=O)N(Cc3ccccc3)C2=O)cs1` (centres undefined) | -7.736 & -15.04 | -2.092 & 12.33 |
| `NC(=O)c1cnc(NC2CCN(c3ccccc3)CC2)c(Cl)c1` | -3.351 | 14.98 & 2.085 |
| `CCc1cc(NCCNc2ccncc2C)n2nc(C)c(C)c2n1` | -3.08 | -10.02 |
| `CC(C)(C)c1nnc(CSc2ccccn2)o1` | 3.965 | -14.26 |
| `O=C(Cc1ccccc1Cl)Nc1cnn(C2CCOC2)c1` (centres undefined) | -2.142 | 1.838 |
| `Cc1cc(C(=O)N(C)Cc2cnn(C)c2)c(NC(=O)C(C)(C)C)s1` | -13.87 | 2.192 |
| `Cc1cccc(CNC(Cc2ccsc2)c2nccs2)n1` (centres undefined) | 17.82 | 37.91 |
| `CCSc1ccccc1C(=O)NCCn1nc(C(F)(F)F)n(C)c1=O` | 11.01 | 2.331 |
| `COc1ccc(C[C@H]2CNCC[C@H]2OC)cc1.O=C(O)C(F)(F)F` | 12.1 | -0.8694 |
| `O=C(O)C(F)(F)F.O=C(O)C(F)(F)F.[H][C@@]12C[C@@H](OCc3ccccc3)CN1CCN(C(=O)c1cccnc1)C2` | -1.618 & -3.687 | -0.4781 |
| `COc1ccc2c(c1)CN(Cc1ccco1)C(=O)CCN2CC(C)(C)O` | -17.86 | 2.939 |
| `Cc1ccc(CN(CCCn2ccnc2)Cc2cc(F)ccc2F)s1.O=C(O)CC(O)(CC(=O)O)C(=O)O` | 30.26 | 59.69 |
| `COCCN1C[C@@H](C)[C@@]2(COCCN(C(=O)Cc3ccccc3)C2)C1.O=C(O)C(F)(F)F` | -25.21 | 0.6367 |
| `[H][C@]12CC[C@]([H])(CN(S(C)(=O)=O)C1)N(C/C=C/c1ccc(F)cc1)C2` | 21.27 | 23.27 |
| `Nc1nccc(N2C[C@@H](CN3CCCCC3)[C@@H](CO)C2)n1` | -5.89 | -3.658 & -10.78 |
| `OC1CCN(CCCNc2nccc(C3CCCC3)n2)CC1` | -23.87 | -2.072 |
| `CNC(=O)C1(Cc2cc(C(C)C)no2)CCN(Cc2ccccn2)C1` (centres undefined) | 0.8304 & -10.35 | -8.305 |
| `CC(C)(CO)NC(=O)C1CCC(=O)N(Cc2ccc(Cl)cc2)C1` (centres undefined) | -5.077 | -3.45 & -3.934 |
| `Cc1cc(C)n(CC(C)NCCn2nc(C)c(Cl)c2C)n1` (centres undefined) | 13.14 | 22.66 |
| `CCN(C(=O)c1cc(C)oc1C)C1CC1` | -13.24 | 0.4633 |
| `CNC(=O)NC(=O)CNC(CC(F)(F)F)c1ccc(F)cc1` (centres undefined) | -3.627 | 4.532 & 25.63 |
| `CCN(CC1CCCN(CCc2cccc(OC)c2)C1)C(=O)CSC` (centres undefined) | 15.98 & 3.439 | 25.65 |
| `O=C(Nc1ccnn1Cc1ccc(Cl)cc1)C1CCS(=O)(=O)C1` (centres undefined) | -15.05 | -27.78 |
| `Cn1ccnc1CN1CCCC(Cc2ccnc3ccncc23)CC1.O=CO` (centres undefined) | 0.1529 | -1.431 |
| `CC(c1cccc(-c2ncccc2F)c1)N(C)C` (centres undefined) | 6.462 | -0.3526 |
| `O=C(CCc1cccs1)N1CCCCC1Cn1cccn1` (centres undefined) | 1.865 | 10.01 |
| `Cc1cnn(CC(C)NCc2ccc(OCc3noc(C)n3)cc2)c1` (centres undefined) | -36.89 | -24.58 |
| `CN(Cc1ccccc1Br)C(=O)Cn1nc(-c2ccc(F)cc2)oc1=O` | -12.48 | -7.909 & -6.294 |
| `Cc1noc2ncc(C(=O)NCC3CCCOC3)cc12` (centres undefined) | 3.253 | 5.765 |
| `CN(C)[C@@H]1CCN(c2ncccn2)[C@H]1Cc1ccccc1` | -11.36 | 10.11 |
| `CC(C)(NC(=O)c1coc(COc2cccc(F)c2)n1)C(N)=O` | -0.5025 & 3.093 | 4.112 & 3.074 |
| `O=C(O)C(F)(F)F.O=C(O)C(F)(F)F.O=C(c1ccsc1)N1CCC2(CC1)COCCN(Cc1ccncc1)C2` | -6.132 & 8.05 | -1.035 |
| `CCOc1cc(CN(C)CC(=O)O)ccc1OC(F)F.Cl` | -26.72 | -4.117 |

4 of the entries, repeated:

* CN(C)[C@@H]1CCN(c2ncccn2)[C@H]1Cc1ccccc1 : Mtb cholesterol medium: -11.36%; Mtb glucose medium: 10.11%
* Cc1cc(C)n(CC(C)NCCn2nc(C)c(Cl)c2C)n1 (centres undefined) : Mtb cholesterol medium: 13.14%; Mtb glucose medium: 22.66%
* Cc1cccc(CNC(Cc2ccsc2)c2nccs2)n1 (centres undefined) : Mtb cholesterol medium: 17.82%; Mtb glucose medium: 37.91%
* Cc1ccc(CN(CCCn2ccnc2)Cc2cc(F)ccc2F)s1.O=C(O)CC(O)(CC(=O)O)C(=O)O : Mtb cholesterol medium: 30.26%; Mtb glucose medium: 59.69%